Measured data: PubChem BioAssay AID1053208 (Peter MacCallum Cancer Centre, 2014)

Purpose: 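Find knock-downs that sensitise mouse osteosarcoma cells to doxorubicin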 (primary screen)
System: mouse osteosarcoma cells, early-passage culture from an engineered mouse model of fibroblastic bone tumour
Reagents: siRNA pool against mouse genes, 40 nM
Time to read-out: about 120 h (48 h before drug, then 72 h with drug)
Conditions: doxorubicin 100 nM for 72 h, roughly 30-40% inhibitory dose
Detection: 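Luminescent ATP signal taken as viability with or without 100 nM doxorubicin for 72 h; mean of two wells set against non-targeting siRNA and turned into robust z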
Reading the numbers: viability z-score with doxorubicin: higher = more viable cells under doxorubicin; viability z-score without drug: higher = more viable cells with knock-down alone; z-score of drug to no-drug ratio: higher = less drug sensitisation by knock-down
Rule for the call: 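Called active if knock-down leaves viability unchanged without drug (z within -2 to 2) but lowers it with doxorubicin (z at or under -2)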
Here is a random part of about 17,000 reagents. 788 of all reagents (4.7%) count as active. 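Calls rest on z-score classes alone; an extra cut-off of viability at most 70% of control was not applied to them.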 A number with no mark means an inactive call. Further read-outs or replicates are left out here.

| Target gene | combined z-score class | viability z-score with doxorubicin | viability z-score without drug | z-score of drug to no-drug ratio |
| --- | --- | --- | --- | --- |
| Anapc5 | no change with or without drug | -1.8 | -1.85 | -0.56 |
| Sod2 | no change with or without drug | -0.22 | 0.51 | -0.45 |
| Pex26 | no change with or without drug | 0.34 | 0.67 | 0 |
| AW209491 | no change with or without drug | 0.56 | -0.34 | 0.9 |
| Zfp3 | no change with or without drug | 0 | -0.17 | 0.22 |
| Or6c65 | no change with or without drug | 0 | -0.67 | 0.56 |
| BC016548 | no change with or without drug | 1.57 | 1.18 | 0.9 |
| Neurod4 | no change with or without drug | -1.24 | -0.17 | -1.12 |
| Vmn1r24 | no change with or without drug | 0 | -0.34 | 0.34 |
| Klra19 | no change with or without drug | 0.22 | 0.84 | -0.22 |
| Hmcn2 | no change with or without drug | 0.67 | 0.34 | 0.56 |
| Pphln1-ps1 | no change with or without drug | 1.46 | -0.17 | 1.8 |
| Taf5l | no change with or without drug | -0.22 | -0.17 | 0 |
| Ptpn12 | no change with or without drug | 0.79 | -0.17 | 1.01 |
| Phf8 | no change with or without drug | -1.57 | -0.51 | -1.24 |
| Brca2 | low cell count without drug only | -1.46 | -2.02 | 0 |
| Trim29 | no change with or without drug | 1.35 | 1.85 | 0.22 |
| Lce1a1 | high cell count with doxorubicin only | 2.02 | 1.85 | 0.9 |
| Abi3 | no change with or without drug | -0.22 | -0.84 | 0.45 |
| Tmem44 | no change with or without drug | -0.45 | -0.51 | 0 |
| Ccdc43 | no change with or without drug | 0.9 | 0.34 | 0.79 |
| Tsr3 | no change with or without drug | 0 | 1.52 | -0.9 |
| Fxyd2 | low cell count with doxorubicin only (active) | -2.02 | -1.18 | -1.35 |
| Pdpr | no change with or without drug | -1.69 | 0.17 | -1.8 |
| Or8b51 | no change with or without drug | 1.12 | -0.17 | 1.46 |
| Gpr25 | high cell count with doxorubicin only | 2.02 | 0.84 | 1.57 |
| Hrh4 | low cell count without drug only | 0.67 | -2.36 | 2.81 |
| F8a | no change with or without drug | 0.56 | 0.84 | 0.11 |
| Or1e35 | no change with or without drug | -0.79 | 1.18 | -1.46 |
| Or4k45 | no change with or without drug | -0.22 | -1.18 | 0.79 |
| Yipf1 | no change with or without drug | 1.12 | 0 | 1.24 |
| Unc5a | no change with or without drug | -0.9 | -0.51 | -0.56 |
| Polr2k | low cell count with and without drug | -4.05 | -3.2 | -2.47 |
| Coa6 | no change with or without drug | -1.91 | 1.52 | -2.7 |
| Iah1 | no change with or without drug | 0.79 | 0 | 0.9 |
| Col5a1 | no change with or without drug | 1.12 | 0.34 | 1.01 |
| Rasa1 | no change with or without drug | 0.22 | 0.17 | 0.22 |
| Vwa1 | no change with or without drug | -0.45 | -0.17 | -0.22 |
| Rnf169 | no change with or without drug | 0.9 | -0.34 | 1.35 |
| Mrpl50 | no change with or without drug | 0.34 | -1.85 | 1.91 |
| Gm9871 | no change with or without drug | -0.79 | -1.85 | 0.67 |
| Or1e34 | no change with or without drug | 0.34 | 1.18 | -0.34 |
| Obp2a | no change with or without drug | 1.57 | 0.17 | 1.69 |
| Or13ae2 | no change with or without drug | -0.67 | -1.01 | 0.11 |
| Htt | no change with or without drug | 0.79 | 0.17 | 0.79 |
| Jagn1 | no change with or without drug | 0.22 | -0.17 | 0.45 |
| Zswim1 | no change with or without drug | 0.45 | -1.52 | 1.8 |
| Mmp24 | no change with or without drug | 0.34 | 0.67 | 0 |
| Dvl1 | no change with or without drug | -0.45 | 0.17 | -0.45 |
| Ccnh | no change with or without drug | 0.79 | 0.84 | 0.34 |

Just “viability z-score with doxorubicin” (2 entries from above):
Htt = 0.79
Jagn1 = 0.22
